Consider 92 molecules from paper PMC6925144, “A prospective compound screening contest identified broader inhibitors for Sirtuin 1” (Scientific Reports, 2019).

Chains of the proteins cited; added tags and fusions are not shown. Residues count along the entry.
UniProt Q96EB6, 2-747 limits assumed: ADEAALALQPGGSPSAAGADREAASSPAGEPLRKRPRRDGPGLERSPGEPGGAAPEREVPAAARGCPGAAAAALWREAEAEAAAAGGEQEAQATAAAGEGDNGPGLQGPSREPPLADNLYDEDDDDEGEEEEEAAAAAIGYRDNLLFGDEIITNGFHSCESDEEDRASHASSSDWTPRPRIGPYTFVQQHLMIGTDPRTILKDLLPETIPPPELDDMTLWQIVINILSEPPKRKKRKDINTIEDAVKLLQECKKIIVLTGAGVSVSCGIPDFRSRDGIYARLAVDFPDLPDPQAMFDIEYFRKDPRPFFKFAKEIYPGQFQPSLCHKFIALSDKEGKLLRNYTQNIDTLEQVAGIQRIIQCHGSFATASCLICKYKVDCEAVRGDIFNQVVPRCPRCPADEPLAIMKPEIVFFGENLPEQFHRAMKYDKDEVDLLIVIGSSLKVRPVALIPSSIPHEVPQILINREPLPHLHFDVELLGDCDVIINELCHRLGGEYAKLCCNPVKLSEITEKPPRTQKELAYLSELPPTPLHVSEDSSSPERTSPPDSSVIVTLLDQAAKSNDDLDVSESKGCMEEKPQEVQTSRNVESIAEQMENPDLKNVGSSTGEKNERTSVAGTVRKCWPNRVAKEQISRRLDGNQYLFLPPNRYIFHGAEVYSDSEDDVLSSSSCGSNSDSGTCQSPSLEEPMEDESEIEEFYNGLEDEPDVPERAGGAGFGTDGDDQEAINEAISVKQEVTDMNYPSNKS

The structures appear in SMILES notation. Whole data set: some 3,200 compounds, median “TSA(without NAD+) / Primary screening (TSA) / delta Tm (K)” near -0.07, cut for the highest 2% near 0.37. The list shows a part of the results.

In the assay the target is NAD-dependent deacetylase Sirtuin 1 (human, UniProt Q96EB6). The experiment in a line: primary screen, delta tm. Further details: single well (n = 1). The note with it: 10 µM. The gist of the method:
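Thermal shift of Sirtuin 1 measured without NAD+, compound at 10 µM (n = 1); value is ΔTm, with hits defined as ΔTm > 0.45 K or < −1.5 K. Hits retested at 5, 10, 20 µM (n = 4) and counterscreened on bovine carbonic anhydrase and ABL1 SH2 domain.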
Take `CCN(C(=O)CSc1nnc(-c2ccccc2Cl)n1C1CCCC1)C1CCS(=O)(=O)C1` (centres unmarked): the “TSA(without NAD+) / Primary screening (TSA) / delta Tm (K)” value is -0.15 K.
The value for `O=C1C(=O)N(CCOc2ccc3ccccc3c2)c2ccccc21` was -0.31 K; that for `COc1ccc(C)cc1-c1nnc(S)n1N` was -0.15 K.
The value for `Cc1cc(-c2nc3cc(F)ccc3n2C)ccc1NC(=O)C1CCCN1C(=O)C(C)C` (centres unmarked) was 0.12 K; that for `O=C(NCc1nc2ccccc2[nH]1)C(O)(c1ccccc1)c1ccccc1` was 0.07 K; that for `Cc1cc(C)c2c(N)c(C(=O)NN=C3C4CC5CC(C4)CC3C5)sc2n1` was -0.22 K.
With `Cc1ccc2[nH]c(-c3cccs3)c(CCC(=O)N3CCC(C(=O)Nc4ccccc4)CC3)c2c1`, the “TSA(without NAD+) / Primary screening (TSA) / delta Tm (K)” value came to 0.09 K.
The value for `Cc1csc2c(N3CC4CCCN4CC3C)ncnc12` (centres unmarked) was -0.13 K.
`CON(C)C(=O)c1cc2c(C)nn(C)c2nc1C`: the “TSA(without NAD+) / Primary screening (TSA) / delta Tm (K)” value was 0.25 K.
The value for `COc1ccc(C2=CCN(C(=O)Cn3cc(C)c4ccccc43)C2)cc1` was 0.09 K; that for `COC(=O)c1cc(NC(=O)CN2CCC(C(N)=O)CC2)cc(C(=O)OC)c1` was -0.33 K; that for `Cc1ccc2c(CC(=O)Nc3cc(C(N)=O)ccc3N3CCCC3)coc2c1` was -0.12 K.
As for `CC(C)Oc1ccc(C(=O)C2=C(O)C(=O)N(CCCN3CCOCC3)C2c2ccc(F)cc2)cc1` (centres unmarked), the “TSA(without NAD+) / Primary screening (TSA) / delta Tm (K)” value was -0.03 K.
The figure for `Nc1ccccc1-c1nc(C2CC2)n[nH]1` is -0.12 K.
The value for `O=C(Cn1nc(-c2ccccc2)ccc1=O)Nc1cc(-c2cccs2)nn1-c1ccccc1` was -0.02 K.
For `Cc1cc(N2CCN(Cc3nc4ccccc4s3)CC2)n2ncnc2n1`, the “TSA(without NAD+) / Primary screening (TSA) / delta Tm (K)” value was -0.08 K.
Turning to `O=C(CN1CCC(Cc2ccccc2)CC1)NCc1ccc(F)cc1`, the “TSA(without NAD+) / Primary screening (TSA) / delta Tm (K)” value is -0.15 K.
The figure for `CC(O)CCN` (centres unmarked) is -0.13 K; for `COc1cc(/C=C/C(=O)Nc2ccc3c(c2)OCCO3)cc(OC)c1` it is -0.08 K.
As for `O=C(CC12CC3CC(CC(C3)C1)C2)NNC(=O)c1ccc(S(=O)(=O)N2CCc3ccccc3C2)cc1`, the “TSA(without NAD+) / Primary screening (TSA) / delta Tm (K)” value came out at 0.19 K.
The value for `COc1cc(CNC(=O)NCCC2=CCCCC2)ccn1` was -0.05 K; that for `O=C(Cn1c(C(F)(F)F)nc2ccccc21)N/N=C1/C(=O)N(Cc2ccc(Cl)cc2)c2ccccc21` was 0.15 K.
The value for `NC(=O)COC(=O)C12CC3CC(C1)CC(c1ccccc1)(C3)C2` was -0.13 K.
`NC(=O)c1cccc(NC(=O)C2CCN(S(=O)(=O)c3cccs3)CC2)c1`: the “TSA(without NAD+) / Primary screening (TSA) / delta Tm (K)” value worked out at 0.05 K.
The value for `O=S(=O)(O)CC(O)CO` (centres unmarked) was -0.18 K; that for `CC(=O)Cn1c(CN2CCC(C(N)=O)CC2)nc2c1c(=O)n(C)c(=O)n2C` was -0.02 K.
The value for `CC(c1ccc(S(N)(=O)=O)cc1)N(C)Cc1nc2ccccc2c(=O)[nH]1` (centres unmarked) was -0.15 K; that for `CCCN1CCN(CCCOc2ccccc2)CC1` was 0.13 K.
The value for `Cc1[nH]c2ccc(C(=O)N3CCCC(C(N)=O)C3)cc2c1C` (centres unmarked) was 0.22 K; that for `COc1ccc(C2C(C(=O)c3cc4ccccc4o3)=C(O)C(=O)N2CCN2CCOCC2)cc1` (centres unmarked) was 0.02 K; that for `CC(C)NC(=O)Cn1cc(C(=O)C2CCCCC2)c2ccccc21` was -0.03 K.
As to `CONC(=O)c1ccc2[nH]c(C)c(C)c2c1`, the “TSA(without NAD+) / Primary screening (TSA) / delta Tm (K)” value is on record as -0.12 K.
Turning to `O=C(Cn1[nH]c(=O)ccc1=O)OCc1ncc(-c2cccc(Cl)c2)o1`, the “TSA(without NAD+) / Primary screening (TSA) / delta Tm (K)” value was -0.04 K.
With `Nc1ncnc2c1ncn2CC(=O)O`, the “TSA(without NAD+) / Primary screening (TSA) / delta Tm (K)” value is reported as -0.18 K.
As for `CNC(=O)C(C)CN(C)c1ccc(Br)cc1C#N` (centres unmarked), the “TSA(without NAD+) / Primary screening (TSA) / delta Tm (K)” value is -0.17 K.
The value for `O=C(c1ccc2nnnn2c1)N(Cc1ccc(O)cc1)Cc1ccco1` was -0.18 K.
As for `CN(c1ccccc1)S(=O)(=O)c1cccc(NC(=O)COC(=O)C23CC4CC(CC(C4)C2)C3)c1`, the “TSA(without NAD+) / Primary screening (TSA) / delta Tm (K)” value was -0.02 K.
Consider `CN(c1ccccc1)S(=O)(=O)c1ccc(C(=O)NNC(=O)C23CC4CC(CC(C4)C2)C3)cc1`, for which the “TSA(without NAD+) / Primary screening (TSA) / delta Tm (K)” value is given as 0.03 K.
Turning to `NC(=O)c1ccc(NC(=O)COC(=O)c2cc3c(s2)CCCCC3)cc1`, the “TSA(without NAD+) / Primary screening (TSA) / delta Tm (K)” value is given as -0.14 K.
For `O=C(Nc1ccccc1Oc1ccccc1)c1cc(=O)c2ccccc2o1`, the “TSA(without NAD+) / Primary screening (TSA) / delta Tm (K)” value amounted to 0.07 K.
The value for `NC(=O)CCn1cnc2sccc2c1=O` was 0.07 K.
In the case of `CN(CC(=O)NCc1ccco1)C(=O)c1ccc(-n2cccn2)cc1`, the “TSA(without NAD+) / Primary screening (TSA) / delta Tm (K)” value was found to be 0.02 K.
Consider `Cc1ccc(C(=O)C2=C(O)C(=O)N(CCCN3CCOCC3)C2c2ccc(Cl)cc2)cc1` (centres unmarked), for which the “TSA(without NAD+) / Primary screening (TSA) / delta Tm (K)” value was found to be 0.18 K.
The figure for `NC(=O)C1COCCN1S(=O)(=O)c1c(Cl)nc2ccccn12` (centres unmarked) is 0.23 K.
As to `CC(NC(=O)CN1C(=O)C2CC=CCC2C1=O)C12CC3CC(CC(C3)C1)C2` (centres unmarked), the “TSA(without NAD+) / Primary screening (TSA) / delta Tm (K)” value is on record as -0.14 K.
The value for `CCC(C)(O)CN` (centres unmarked) was -0.23 K; that for `O=C1CN(c2ncnc3c2oc2ccccc23)CCN1` was -0.07 K.
For `O=C(/C=C/c1cn(-c2ccccc2)nc1-c1cc2ccccc2o1)NCc1nnc2ccccn12`, the “TSA(without NAD+) / Primary screening (TSA) / delta Tm (K)” value was 0.19 K.
The figure for `CCOc1nc2cc(C(=O)OC(C)Cn3cccn3)ccc2[nH]1` (centres unmarked) is -0.15 K; for `O=C(C1=C(O)C(=O)N(CCCN2CCOCC2)C1c1ccco1)c1ccco1` (centres unmarked) it is -0.22 K; for `CNC(=O)c1ccc(CSc2nccn2Cc2ccccn2)cc1` it is -0.04 K.
The value for `CCn1c(SCc2cccc(F)c2)nc2ccsc2c1=O` was -0.23 K; that for `Cc1cc(N2CCN(CC(=O)Nc3ccccc3C(N)=O)CC2)nc(C(C)C)n1` was -0.11 K; that for `CCCCn1c(N)c(N(CC(C)C)C(=O)c2cccc(S(=O)(=O)N(C)c3ccccc3)c2)c(=O)[nH]c1=O` was -0.08 K.
The value for `CC1(c2cccc(NC(=O)c3ccc4ccccc4n3)c2)NC(=O)NC1=O` (centres unmarked) was -0.38 K.
Take `O=C(Nc1ccc2c(c1)C(=O)NC2=O)Nc1cnc[nH]1`: the “TSA(without NAD+) / Primary screening (TSA) / delta Tm (K)” value is given as -0.17 K.
The value for `NC(=O)CCN(Cc1ccccc1)C(=O)COC(=O)C12CC3CC(C1)CC(c1ccccc1)(C3)C2` was -0.24 K; that for `CCCOCC(=O)O` was -0.13 K.
Consider `Cc1cc(Br)c(NCc2cc(=O)n3ccccc3n2)c(Br)c1`, for which the “TSA(without NAD+) / Primary screening (TSA) / delta Tm (K)” value stood at 0.08 K.
For the molecule `O=C(NC12CC3CC(CC(C3)C1)C2)c1c[nH]n2c1nc(=O)c1ccccc12`, the “TSA(without NAD+) / Primary screening (TSA) / delta Tm (K)” value was -0.03 K.
The value for `Cc1oc2cc(OC(C)C(=O)NCc3ccco3)ccc2c(=O)c1-c1c(F)cccc1Cl` (centres unmarked) was -0.11 K.
The value for `COc1cc(NC(=O)c2ccco2)c(C(=O)OCc2nc3ccsc3c(=O)[nH]2)cc1OC` was -0.24 K; that for `CC(C)Nc1nnc(S)s1` was -0.02 K.
On to `Cc1ccc(C2C(C(=O)c3nc4ccccc4s3)=C(O)C(=O)N2CCCN2CCOCC2)cc1` (centres unmarked), for which the “TSA(without NAD+) / Primary screening (TSA) / delta Tm (K)” value was -0.23 K.
The value for `Cc1sc2ncnc(N3CCC(C(N)=O)CC3)c2c1C` was -0.11 K; that for `CN1C(=O)N(CC(=O)Nc2ccc(-n3cnc4ccccc43)nc2)C(=O)C12CCCCC2` was -0.13 K.
Take `Cc1cc2ccccc2n1CC(=O)NCC(Cc1ccccc1)N(C)C` (centres unmarked): the “TSA(without NAD+) / Primary screening (TSA) / delta Tm (K)” value was -0.12 K.
As for `CCOc1ccc(CN(C)CC(=O)Nc2oc(C)c3c(C)n[nH]c(=O)c23)cc1`, the “TSA(without NAD+) / Primary screening (TSA) / delta Tm (K)” value is reported as -0.01 K.
As to `CCn1c(=O)c(=O)[nH]c2cc(C(=O)N(C)Cc3ccc(OCc4ccccc4)c(OC)c3)ccc21`, the “TSA(without NAD+) / Primary screening (TSA) / delta Tm (K)” value worked out at 0.05 K.
The value for `CCCCNC(=O)C1CCN(S(=O)(=O)c2cc(C(N)=O)n(C)c2)CC1` was 0.19 K; that for `O=C(CNC(=O)C12CC3CC(CC(C3)C1)C2)N1CCN(S(=O)(=O)c2ccc3ccccc3c2)CC1` was -0.12 K; that for `Cn1ncc2c(=O)n(CC(=O)N3CCCc4c(C(N)=O)cccc43)cnc21` was -0.18 K.
The figure for `CCn1c(C(=O)Nc2ccc3nc[nH]c(=O)c3c2)cc2ccccc21` is -0.23 K; for `NC(=O)C1CCCCC1NCc1nc2c(s1)CCC2` (centres unmarked) it is -0.12 K.
Take `COc1ccc(C(=O)NNC(=O)COc2ccccc2C)cc1S(=O)(=O)NC(C)C12CC3CC(CC(C3)C1)C2` (centres unmarked): the “TSA(without NAD+) / Primary screening (TSA) / delta Tm (K)” value was 0.09 K.
The value for `O=C(O)c1cc(S(=O)(=O)NCC2CCCO2)ccc1Br` (centres unmarked) was -0.08 K; that for `O=C(NCc1ccc(C(=O)N2CCCCC2)cc1)c1ccccc1Nc1ccccc1` was 0.17 K.
For the molecule `CC1CCN(Cc2nc(N3CCNC(C(N)=O)C3)c3c4c(sc3n2)CCC4)CC1` (centres unmarked), the “TSA(without NAD+) / Primary screening (TSA) / delta Tm (K)” value is -0.13 K.
`CCC1(N)CC1`: the “TSA(without NAD+) / Primary screening (TSA) / delta Tm (K)” value is recorded as -0.11 K.
The figure for `Cc1ccc(NC(=O)CN2CCN(C(=O)c3ccc(-c4ccc(F)cc4)o3)CC2)cc1` is 0.02 K.
The figure for `NC(=O)CN(Cc1ccc(OCc2ccccc2)cc1)C(=O)c1ccncc1` is 0.27 K; for `O=c1ccncn1CC1Cc2ccccc2O1` (centres unmarked) it is -0.18 K; for `COc1cccc(CN(C)CC(=O)NC(=O)NCc2ccccc2)c1` it is -0.18 K.
The figure for `Cc1cc(=O)[nH]c(-c2cccc(NC(=O)c3cnc4ccccc4n3)c2)n1` is 0.07 K; for `COc1cccc(/C=C/C(=O)N2CCC(CC(N)=O)CC2)c1OC` it is -0.02 K; for `CN(c1cccnn1)C1CCN(c2ncnc3c2oc2ccccc23)CC1` it is -0.15 K.
Turning to `Cc1nc2c(cc1C(=O)N(C)C)c(C)nn2C`, the “TSA(without NAD+) / Primary screening (TSA) / delta Tm (K)” value is reported as -0.08 K.
For the molecule `CN(CCO)c1ncnc2c1oc1ccccc12`, the “TSA(without NAD+) / Primary screening (TSA) / delta Tm (K)” value is listed as -0.27 K.
As to `C#CCC(Nc1nc(-c2cccnc2)nc2ccccc12)C(N)=O` (centres unmarked), the “TSA(without NAD+) / Primary screening (TSA) / delta Tm (K)” value is on record as -0.13 K.
The figure for `CC1(C)CCC(NC(=O)c2ccc3c(c2)C(=O)NC3=O)c2ccccc21` (centres unmarked) is -0.03 K; for `C#CCC(NC(=O)c1cccc(S(=O)(=O)N(C)c2ccc(C)cc2)c1)C(N)=O` (centres unmarked) it is 0.13 K.
The figure for `Cc1nc(-c2cccc(N3CC(C(=O)O)CC3=O)c2)oc1C` (centres unmarked) is -0.22 K.
